Laboratory results taken from paper PMC5320500.
No constants are given. Whether binding was seen depends on the method and setting. Binding seen in cells or lysates may run through a third protein. Binding calls can cover weak binding; strength is not graded here.

Amino acid sequences for entries named in this document (tags omitted). A change or cut given only in a name is not applied to a line headed by its entry.
UniProt Q5D869: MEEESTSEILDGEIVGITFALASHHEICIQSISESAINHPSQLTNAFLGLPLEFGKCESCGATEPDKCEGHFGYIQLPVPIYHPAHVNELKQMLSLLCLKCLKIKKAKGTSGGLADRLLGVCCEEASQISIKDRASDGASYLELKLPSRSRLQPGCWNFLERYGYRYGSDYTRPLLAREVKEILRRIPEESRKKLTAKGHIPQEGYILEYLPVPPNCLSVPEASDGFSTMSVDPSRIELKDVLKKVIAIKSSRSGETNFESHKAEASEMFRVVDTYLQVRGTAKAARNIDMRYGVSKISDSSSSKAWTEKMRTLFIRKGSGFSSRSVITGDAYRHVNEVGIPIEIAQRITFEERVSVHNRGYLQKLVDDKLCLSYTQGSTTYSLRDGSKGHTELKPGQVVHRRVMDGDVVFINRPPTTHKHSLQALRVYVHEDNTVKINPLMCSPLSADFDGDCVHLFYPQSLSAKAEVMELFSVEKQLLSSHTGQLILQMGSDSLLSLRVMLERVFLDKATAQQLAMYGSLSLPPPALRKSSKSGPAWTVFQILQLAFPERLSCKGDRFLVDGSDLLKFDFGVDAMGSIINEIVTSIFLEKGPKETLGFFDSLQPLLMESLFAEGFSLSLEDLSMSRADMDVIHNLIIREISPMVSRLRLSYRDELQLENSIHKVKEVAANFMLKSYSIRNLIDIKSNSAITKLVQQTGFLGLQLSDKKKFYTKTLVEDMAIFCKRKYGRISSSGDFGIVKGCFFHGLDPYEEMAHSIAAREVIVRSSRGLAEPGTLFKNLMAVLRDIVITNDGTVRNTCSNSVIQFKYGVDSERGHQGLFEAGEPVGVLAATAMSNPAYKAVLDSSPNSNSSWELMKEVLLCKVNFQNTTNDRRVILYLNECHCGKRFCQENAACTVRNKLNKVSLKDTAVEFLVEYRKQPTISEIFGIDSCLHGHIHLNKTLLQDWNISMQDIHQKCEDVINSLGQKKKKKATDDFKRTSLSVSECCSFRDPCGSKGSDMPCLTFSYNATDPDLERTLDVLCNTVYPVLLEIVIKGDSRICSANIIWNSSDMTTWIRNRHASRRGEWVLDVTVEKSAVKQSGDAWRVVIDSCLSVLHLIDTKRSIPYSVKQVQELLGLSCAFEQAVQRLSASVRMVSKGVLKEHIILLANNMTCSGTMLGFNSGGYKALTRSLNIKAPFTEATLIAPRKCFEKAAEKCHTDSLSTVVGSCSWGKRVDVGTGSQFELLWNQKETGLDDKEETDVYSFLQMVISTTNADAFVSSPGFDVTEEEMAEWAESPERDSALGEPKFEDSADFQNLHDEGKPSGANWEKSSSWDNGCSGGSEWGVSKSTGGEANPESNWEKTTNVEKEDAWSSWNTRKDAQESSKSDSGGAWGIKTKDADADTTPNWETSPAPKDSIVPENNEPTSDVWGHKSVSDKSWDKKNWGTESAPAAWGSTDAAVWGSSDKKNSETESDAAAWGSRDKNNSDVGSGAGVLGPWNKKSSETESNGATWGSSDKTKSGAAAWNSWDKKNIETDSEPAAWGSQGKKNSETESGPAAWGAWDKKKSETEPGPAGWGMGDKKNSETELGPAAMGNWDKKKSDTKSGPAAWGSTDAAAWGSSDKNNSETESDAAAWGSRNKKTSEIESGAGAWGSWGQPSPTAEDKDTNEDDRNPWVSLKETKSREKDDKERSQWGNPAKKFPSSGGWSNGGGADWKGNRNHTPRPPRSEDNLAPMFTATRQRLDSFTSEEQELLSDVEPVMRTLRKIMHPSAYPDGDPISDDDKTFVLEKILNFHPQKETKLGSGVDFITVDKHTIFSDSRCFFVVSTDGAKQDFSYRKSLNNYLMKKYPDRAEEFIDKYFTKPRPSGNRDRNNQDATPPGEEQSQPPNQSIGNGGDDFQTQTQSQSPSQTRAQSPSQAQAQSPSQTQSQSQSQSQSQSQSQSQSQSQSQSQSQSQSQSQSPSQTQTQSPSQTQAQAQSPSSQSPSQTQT
UniProt Q9M1J2: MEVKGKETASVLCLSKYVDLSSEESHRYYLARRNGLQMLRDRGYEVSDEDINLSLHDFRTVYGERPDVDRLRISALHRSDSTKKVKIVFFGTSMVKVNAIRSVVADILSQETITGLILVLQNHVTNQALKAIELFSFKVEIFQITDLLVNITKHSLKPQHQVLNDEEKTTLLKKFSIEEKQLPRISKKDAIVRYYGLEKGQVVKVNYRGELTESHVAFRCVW

Target: NRPE1-FLAG (largest subunit of nuclear RNA polymerase V) (Arabidopsis thaliana) (UniProt Q5D869)
Experiment: cross-linking; Pol V complex held on dimethylated anti-FLAG beads, washed with 1 M NaCl lysis buffer, cross-linked on the beads with 5 mM BS3 in 30 mM HEPES pH 7.5, 150 mM NaCl, 1 h, room temperature; trypsin (FASP), LC MS/MS, Batch-Tag search

Substance: NRPE5 (from UniProt Q9M1J2)
- binding: binds
